PubChem BioAssay AID504774 – Drosophila RNAi Screening Center | 2011
The deposit covers about 23,000 reagents; below is an unselected part of those with a known target gene and a result. 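Values are quantile-normalised luminescence on an arbitrary scale; higher means more cells surviving MMS.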 A plus sign joins genes that one reagent is predicted to hit.

Assay: 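Fly genes whose loss alters survival after alkylation damage to DNA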 (primary screen)
Cells: Drosophila Kc167 cells
Reagent: long dsRNA against Drosophila genes, about 0.25 µg dsRNA per well
Time to read-out: about 6 days: 3 days knock-down, then 3 days with or without MMS
Treatment: methyl methanesulphonate 0.004% (w/v) for 3 days after knock-down
Measured: 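ATP-dependent luminescence as a measure of live cells in MMS-exposed wells, quantile normalised within each plate, with replicate values also given as a mean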
Reading the numbers: mean viability with MMS and viability with MMS: higher = more surviving cells after MMS

gene	amplicon	mean viability with MMS	viability with MMS, replicate 1	viability with MMS, replicate 2
Obp56h (Odorant-binding protein 56h)	DRSC06433	3.39e6	3.83e6	3.80e6
CG40045	DRSC21232	3.58e6	4.00e6	4.09e6
CG13836 (retired record)	DRSC14686	3.67e6	4.19e6	4.12e6
tea (telomere ends associated)	DRSC06110	3.43e6	3.89e6	3.84e6
tea (telomere ends associated)	DRSC06236	3.44e6	3.98e6	3.84e6
CG10477	DRSC09732	3.54e6	4.11e6	3.92e6
Eig71Ed (Ecdysone-induced gene 71Ed)	DRSC11151	3.64e6	4.12e6	4.11e6
boi	DRSC18425	3.60e6	4.19e6	3.98e6
boi	DRSC18598	3.48e6	4.01e6	3.90e6
CG9921	DRSC20220	2.01e6	4.07e6	4.24e6
Arf4 (ADP ribosylation factor 4)	DRSC17195	3.66e6	4.22e6	4.07e6

3 entries already listed, ordered by “mean viability with MMS”, low to high:
gene	amplicon	mean viability with MMS	viability with MMS, replicate 1	viability with MMS, replicate 2
boi	DRSC18598	3.48e6	4.01e6	3.90e6
boi	DRSC18425	3.60e6	4.19e6	3.98e6
Eig71Ed (Ecdysone-induced gene 71Ed)	DRSC11151	3.64e6	4.12e6	4.11e6

The listing continues:
gene	amplicon	mean viability with MMS	viability with MMS, replicate 1	viability with MMS, replicate 2
Elo68beta (Elongase 68beta)	DRSC09860	3.77e6	4.15e6	4.30e6
E2f1 (E2F transcription factor 1)	DRSC16655	3.42e6	3.99e6	3.80e6
Cyp4p2 (Cytochrome P450 4p2)	DRSC07373	3.45e6	3.94e6	3.83e6
CG2247	DRSC19844	3.59e6	3.98e6	4.20e6
CG4951	DRSC15682	3.56e6	4.08e6	4.00e6
Cpr64Ac (Cuticular protein 64Ac)	DRSC08462	3.55e6	4.01e6	4.03e6
CG12824	DRSC06173	3.78e6	4.20e6	4.16e6
cyp33 + CG34194	DRSC05666	3.79e6	3.97e6	4.71e6
CG30350	DRSC07690	3.63e6	4.13e6	4.03e6
CG31883	DRSC02561	3.80e6	4.50e6	4.13e6
osa	DRSC17022	3.47e6	3.86e6	4.00e6
CG7910	DRSC16341	3.49e6	4.01e6	3.93e6
CG9628	DRSC11082	3.53e6	3.95e6	4.03e6
CG42323	DRSC19629	3.46e6	3.87e6	3.97e6
CG42323	DRSC21397	3.60e6	4.15e6	4.01e6
AdamTS-B (ADAM metallopeptidase with thrombospondin type 1 motif B)	DRSC18346	3.71e6	4.06e6	4.36e6
MCPH1 (Microcephalin)	DRSC06309	3.59e6	4.11e6	4.03e6
MCPH1 (Microcephalin)	DRSC07308	3.38e6	3.96e6	3.57e6
MCPH1 (Microcephalin)	DRSC22536	3.64e6	4.11e6	4.08e6
